Data published in PMC10888420.
No constants are given. Whether binding was seen depends on the method and setting. Binding seen in cells or lysates may run through a third protein. A result given as binding can be weak or reduced; the word gives no strength. Sequences can lack the tags named with a protein.

Target: PwNAC31-cYFP fusion protein (Picea wilsonii)
Assay: split reporter; BiFC: PwNAC31-cYFP (pSPYCE) with nYFP fusions (pSPYNE) transiently co-expressed in transgenic tobacco leaves with NLS-mCherry; confocal microscopy after 3 days; signal in the nuclei

binding: binds
B1: ABF3 fused to nYFP (protein, UniProt Q9M7Q3 1-454)
chain: MGSRLNFKSFVDGVSEQQPTVGTSLPLTRQNSVFSLTFDEFQNSWGGGIGKDFGSMNMDELLKNIWTAEESHSMMGNNTSYTNISNGNSGNTVINGGGNNIGGLAVGVGGESGGFFTGGSLQRQGSLTLPRTISQKRVDDVWKELMKEDDIGNGVVNGGTSGIPQRQQTLGEMTLEEFLVRAGVVREEPQPVESVTNFNGGFYGFGSNGGLGTASNGFVANQPQDLSGNGVAVRQDLLTAQTQPLQMQQPQMVQQPQMVQQPQQLIQTQERPFPKQTTIAFSNTVDVVNRSQPATQCQEVKPSILGIHNHPMNNNLLQAVDFKTGVTVAAVSPGSQMSPDLTPKSALDASLSPVPYMFGRVRKTGAVLEKVIERRQKRMIKNRESAARSRARKQAYTMELEAEIAQLKELNEELQKKQVEIMEKQKNQLLEPLRQPWGMGCKRQCLRRTLTGPW
